Test results as given in paper PMC6753678, “Fueling Open Innovation for Malaria Transmission-Blocking Drugs: Hundreds of Molecules Targeting Early Parasite Mosquito Stages” (Frontiers in Microbiology, 2019).

Tested on: P. berghei ookinete development
[1] = unified cytotox / IC50, <10-fold red, >10-fold green

Row | SMILES | Assay tox ratio Pb ODA (red: <10-fold selectivity; green: >10-fold) | Assay tox ratio Pb ODA [1] | other results
1 | COc1ccc2ncc(F)c(NC(=O)C3CCC(NCc4cc5cc(F)cc(F)c5[nH]4)CC3)c2n1.Cl (stereo not shown) [TCMDC-136455] | 15.25 |  | 
2 | CN1CCN(CC(=O)Nc2ccc(-c3ccc(-c4nc5ccccc5[nH]4)cc3)cc2)CC1 [TCMDC-136979] |  |  | Assay tox ratio Pb ODA: 5.16
3 | Cc1cc(=O)c2cc(-c3ccc(OC(F)(F)F)cc3)ccc2[nH]1 [TCMDC-137042] |  |  | Assay tox ratio Pb ODA: 15.66
4 | Cl.c1ccc(Oc2ccc(Nc3nncc4ccccc34)cc2)cc1 [TCMDC-137229] |  |  | Assay tox ratio Pb ODA: 144.57
5 | Cc1c(Cc2ccccc2Br)cnc2nc(N)nc(N)c12.Cl [TCMDC-137244] | 0.000914 |  | 
6 | Cc1cc(=O)c(-c2ccc(Oc3cccc(Cl)c3)cc2)c(C)[nH]1 [TCMDC-137265] |  | 2.91 | 
7 | Cc1cc(=O)c(-c2ccc(Oc3cccc(OC(F)(F)F)c3)cc2)c(C)[nH]1 [TCMDC-137266] | 52.30 |  | 
8 | CCCCCCCCCc1c(C)[nH]c2ccccc2c1=O [TCMDC-137268] | 175.28 |  | 
9 | CCC(CC)n1c(C)cc2c3c(N)nc(N)nc3ccc21 [TCMDC-137283] |  | 0.00201 | 
10 | CCN(CC)S(=O)(=O)n1ncc2c3c(N)nc(N)nc3ccc21.Cl [TCMDC-137302] | 0.0266 |  | 
11 | CCc1cc2c3c(N)nc(N)nc3ccc2n1C(C)(C)C [TCMDC-137306] |  | 0.00157 | 
12 | CCc1cc2c3c(N)nc(N)nc3ccc2n1C(C)CC (stereo not shown) [TCMDC-137308] |  | 0.00245 | 
13 | CCCc1cc2c3c(N)nc(N)nc3ccc2n1C(CC)CC [TCMDC-137312] |  | 0.00366 | 
14 | CCC(CC)n1c(COC)cc2c3c(N)nc(N)nc3ccc21 [TCMDC-137313] |  | 0.00126 | 
15 | CNCCN(C)C(=O)Oc1c(Br)c(C)nc(C)c1-c1ccc(Oc2ccc(OC(F)(F)F)cc2)cc1.Cl [TCMDC-137377] | 5.62 |  | 
16 | Cc1[nH]c(C)c(-c2ccc(Oc3ccc(Cl)cc3)cc2)c(=O)c1C [TCMDC-137378] |  | 13.54 | 
17 | Cc1nc(C)c(-c2ccc(Oc3ccc(OC(F)(F)F)cc3)cc2)c(OC(=O)c2ccccc2)c1Cl [TCMDC-137380] | 43.71 |  | 
18 | CC(=O)Oc1c(Cl)c(C)nc(C)c1-c1ccc(Oc2ccc(Cl)cc2)cc1 [TCMDC-137381] | 26.92 |  | 
19 | Cc1nc(C)c(-c2ccc(Oc3ccc(OC(F)(F)F)cc3)cc2)c(OC(=O)c2ccc(CN(C)C)cc2)c1Cl [TCMDC-137382] | 53.17 |  | 
20 | CC(=O)Oc1c(Br)c(C)nc(C)c1-c1ccc(Oc2ccc(OC(F)(F)F)cc2)cc1 [TCMDC-137383] | 16.80 |  | 
21 | CC(=O)Oc1c(Cl)c(C)nc(C)c1-c1ccc(Oc2ccc(OC(F)(F)F)cc2)cc1 [TCMDC-137385] | 31.26 |  | 
22 | Cc1nc(C)c(-c2ccc(Oc3cc(Cl)cc(Cl)c3)cc2)c(O)c1Br [TCMDC-137392] |  | 44.62 | 
23 | Cc1nc(C)c(-c2ccc(Oc3ccc(Cl)c(Cl)c3)cc2)c(O)c1Cl [TCMDC-137396] | 137.14 |  | 
24 | Cc1nc(C)c(-c2ccc(Oc3ccc(Cl)c(Cl)c3)cc2)c(O)c1Br [TCMDC-137397] |  | 217.62 | 
25 | Cc1[nH]c(C)c(-c2ccc(Oc3ccc(F)cc3)cc2)c(=O)c1Br [TCMDC-137402] |  | 67.05 | 
26 | Cc1[nH]c(C)c(-c2ccc(Oc3ccc(C(F)(F)F)cc3)cc2)c(=O)c1Br [TCMDC-137406] |  | 45.35 | 
27 | Cc1[nH]c(C)c(-c2ccc(C(=O)c3ccc(Cl)cc3)cc2)c(=O)c1Br [TCMDC-137407] | 575.25 |  | 

Row | SMILES | Assay tox ratio Pb ODA (red: <10-fold selectivity; green: >10-fold) | Assay tox ratio Pb ODA [1] | other results
28 | Cc1[nH]c(C)c(-c2ccc(Oc3ccccc3)cc2)c(=O)c1Br [TCMDC-137410] |  | 1025.09 | 
29 | Cc1cc(=O)c(-c2cccc(Oc3ccc(Cl)cc3)c2)c(C)[nH]1 [TCMDC-137415] |  | 50.26 | 
30 | Cc1[nH]c(C)c(-c2ccc(-c3ccc(Cl)cc3)cc2)c(=O)c1Cl [TCMDC-137416] | 23.64 |  | 
31 | Cc1[nH]c(C)c(C2CCC(c3ccc(Cl)cc3)CC2)c(=O)c1Cl (stereo not shown) [TCMDC-137423] |  |  | Assay tox ratio Pb ODA: 29.67
32 | CCCCCCCCc1c(C)[nH]c(C)c(C#N)c1=O [TCMDC-137431] |  |  | Assay tox ratio Pb ODA: 75.45
33 | CCCCC1=CC2C(=O)C(C(=O)OC)=CN=C2C=C1OCc1ccccc1 (stereo not shown) [TCMDC-137492] |  |  | Assay tox ratio Pb ODA: 33.09
34 | CCCCOc1cc2ncc(C(=O)OCC)c(O)c2cc1OCCCC [TCMDC-137523] |  |  | Assay tox ratio Pb ODA: 45.70
35 | Cc1cc(O)c(-c2ccc(Oc3ccc(F)cc3)cc2)c(C)n1 [TCMDC-137535] |  | 0.48 | 
36 | CCCCCCCCc1c(C)[nH]c(C)c(Cl)c1=O [TCMDC-137538] |  |  | Assay tox ratio Pb ODA: 36.47
37 | CCN1CCN(CCNc2c3ccccc3nc3ccccc23)CC1.Cl [TCMDC-137545] |  | 6.60 | 
38 | CCN1CCN(CCCNc2c3ccccc3nc3ccccc23)CC1.Cl [TCMDC-137546] |  | 2.99 | 
39 | CC(C)N1CCN(CCCNc2c3ccccc3nc3ccccc23)CC1.Cl [TCMDC-137547] |  | 3.89 | 
40 | CCCN1CCN(CCNc2c3ccccc3nc3ccccc23)CC1 [TCMDC-137549] |  | 3.70 | 
41 | Cl.c1ccc(CN2CCN(CCNc3c4ccccc4nc4ccccc34)CC2)cc1 [TCMDC-137571] |  | 8.29 | 
42 | CC(C)N1CCN(CCCCNc2c3ccccc3nc3ccccc23)CC1.Cl [TCMDC-137573] |  | 1.99 | 
43 | CCCN1CCN(CCCCNc2c3ccccc3nc3ccccc23)CC1.Cl [TCMDC-137576] |  | 2.31 | 
44 | CCOC(=O)N1CCN(CCCCNc2c3ccc(Cl)cc3nc3ccc(OC)cc23)CC1.Cl [TCMDC-137579] | 1.22 |  | 
45 | COc1ccc2nc3cc(Cl)ccc3c(NCCCN3CCNCC3)c2c1.Cl [TCMDC-137580] | 8.82 |  | 
46 | Cc1nc2nc(N)nc(N)c2c(C)c1Cc1ccc(N)cc1.Cl [TCMDC-137633] | 0.0125 |  | 
47 | COc1ccc2nc3cc(Cl)ccc3c(NCc3ccccc3)c2c1.Cl [TCMDC-137663] | 25.54 |  | 
48 | Cc1nc2nc(N)nc(N)c2c(C)c1Cc1ccccc1.Cl [TCMDC-137670] | 0.01 |  | 
49 | Nc1nc(N)c2c(ccc3c2ncn3Cc2ccccc2)n1 [TCMDC-137749] |  |  | Assay tox ratio Pb ODA: 0.26
50 | CCC1=C[C@@H]2CN(C1)Cc1c([nH]c3ccccc13)[C@@](C(=O)OC)(c1cc3c(cc1OC)N(C)[C@H]1[C@@](O)(C(=O)OC)[C@H](O)[C@]4(CC)C=CCN5CC[C@]31[C@@H]54)C2.O=S(=O)(O)O [TCMDC-137769] |  |  | Assay tox ratio Pb ODA: 112.98
51 | Nc1nc(N)c2c(ccc3c2ccn3Cc2ccc3c(c2)OCO3)n1 [TCMDC-137808] |  | 0.07 | 
52 | Nc1nc(N)c2c(ccc3c2ccn3Cc2cccc(F)c2)n1 [TCMDC-137810] |  | 0.32 | 
53 | COc1cccc(Cn2ccc3c4c(N)nc(N)nc4ccc32)c1 [TCMDC-137811] |  | 0.00828 | 
54 | Cc1ccccc1Cn1ccc2c3c(N)nc(N)nc3ccc21 [TCMDC-137812] |  | 0.02 | 

Row | SMILES | Assay tox ratio Pb ODA (red: <10-fold selectivity; green: >10-fold) | Assay tox ratio Pb ODA [1] | other results
55 | N#Cc1ccc(Cn2ccc3c4c(N)nc(N)nc4ccc32)cc1 [TCMDC-137820] |  | 0.00111 | 
56 | CCN(C)C(=O)n1ncc2c3c(N)nc(N)nc3ccc21 [TCMDC-137828] | 0.09 |  | 
57 | CCC(C)(C)c1ccc2nc(N)nc(N)c2c1C [TCMDC-137829] |  |  | Assay tox ratio Pb ODA: 0.000547
58 | CCc1cc2c3c(N)nc(N)nc3ccc2n1CC [TCMDC-137851] |  | 0.0227 | 
59 | Cl.Nc1nc(N)c2c(ccc3c2cnn3S(=O)(=O)N2CCCC2)n1 [TCMDC-137852] | 0.00269 |  | 
60 | Cl.Nc1nc(N)c2c(ccc3nn(S(=O)(=O)N4CCCC4)cc32)n1 [TCMDC-137854] | 0.0222 |  | 
61 | CCn1c(C(C)C)cc2c3c(N)nc(N)nc3ccc21 [TCMDC-137856] |  | 0.00513 | 
62 | Cc1cc2c3c(N)nc(N)nc3ccc2n1C(C)C [TCMDC-137864] |  | 0.0143 | 
63 | Nc1nc(N)c2c(Cl)c(N3CCOCC3)ccc2n1 [TCMDC-137868] |  |  | Assay tox ratio Pb ODA: 0.00226
64 | CCC(C(C)C)n1ccc2c3c(N)nc(N)nc3ccc21 (stereo not shown) [TCMDC-137872] |  | 0.00358 | 
65 | Cl.OCC(CO)(CO)NCc1ccc2c3c(cccc13)-c1ccccc1-2 [TCMDC-137877] |  |  | Assay tox ratio Pb ODA: 16.93
66 | CCCC(CCC)n1ccc2c3c(N)nc(N)nc3ccc21.Cl [TCMDC-137949] |  | 0.00061 | 
67 | Nc1nc(N)c2c(ccc3c2ccn3CCCCO)n1 [TCMDC-137959] |  | 0.0245 | 
68 | CCCC(C)n1ccc2c3c(N)nc(N)nc3ccc21 (stereo not shown) [TCMDC-137964] |  | 0.00673 | 
69 | CC(C)Cn1ncc2c3c(N)nc(N)nc3ccc21 [TCMDC-137970] | 0.06 |  | 
70 | CCOCn1c(-c2ccccc2)cc2c3c(N)nc(N)nc3ccc21 [TCMDC-137979] |  | 0.70 | 
71 | Nc1nc(N)c2c(ccc3c2ccn3Cc2ccccn2)n1 [TCMDC-137980] |  | 0.00316 | 
72 | C=CCn1ccc2c3c(N)nc(N)nc3ccc21 [TCMDC-137995] |  | 0.40 | 
73 | Nc1nc(N)c2c(ccc3c2ccn3Cc2cccc3ccccc23)n1 [TCMDC-137996] |  | 0.000295 | 
74 | CC(C)Cn1ccc2c3c(N)nc(N)nc3ccc21 [TCMDC-137997] |  | 0.18 | 
75 | CCCCCCCc1c(C)nc2cccc(OC)c2c1O [TCMDC-138014] | 4.80 |  | 
76 | Cc1ccc(S(=O)(=O)N(CCCNCc2cccc(O)c2)c2ccccc2)cc1 [TCMDC-138022] |  | 26.84 | 
77 | COc1ccc(Cc2c(N)nc3nc(N)nc(N)c3c2C)cc1.Cl [TCMDC-138061] | 0.0106 |  | 
78 | COc1ccc(-c2nc3c(N)nc(N)nc3nc2-c2ccccc2Cl)cc1.COc1ccc(-c2nc3nc(N)nc(N)c3nc2-c2ccccc2Cl)cc1.Cl [TCMDC-138100] |  |  | Assay tox ratio Pb ODA: 8.88
79 | CC(O)C(C)(CO)NCc1ccc2c3c(cccc13)-c1ccccc1-2.Cl (stereo not shown) [TCMDC-138117] |  |  | Assay tox ratio Pb ODA: 7.35

Read-outs that look alike come from different tables or passages of the source.
